Measurements as given in PMC6689043.
These are yes or no findings as the source states them, for the method shown. Binding seen in cells or lysates may run through a third protein. Some results given as binding are weak or reduced against the parent protein; the word gives no strength.

B1: abscisic acid responsive element-binding factor 3 (ABF3) (protein, UniProt Q9M7Q3 1-454)
chain: MGSRLNFKSFVDGVSEQQPTVGTSLPLTRQNSVFSLTFDEFQNSWGGGIGKDFGSMNMDELLKNIWTAEESHSMMGNNTSYTNISNGNSGNTVINGGGNNIGGLAVGVGGESGGFFTGGSLQRQGSLTLPRTISQKRVDDVWKELMKEDDIGNGVVNGGTSGIPQRQQTLGEMTLEEFLVRAGVVREEPQPVESVTNFNGGFYGFGSNGGLGTASNGFVANQPQDLSGNGVAVRQDLLTAQTQPLQMQQPQMVQQPQMVQQPQQLIQTQERPFPKQTTIAFSNTVDVVNRSQPATQCQEVKPSILGIHNHPMNNNLLQAVDFKTGVTVAAVSPGSQMSPDLTPKSALDASLSPVPYMFGRVRKTGAVLEKVIERRQKRMIKNRESAARSRARKQAYTMELEAEIAQLKELNEELQKKQVEIMEKQKNQLLEPLRQPWGMGCKRQCLRRTLTGPW
B2: Di19-2 (protein, UniProt Q8GWK1 1-221)
chain: MEDDMWCVSSSGSSRSYRSETAAKYQSGPYQDLEEFEEVDDDIAVEYPCPFCASDYDLVELCHHIDEEHRHEANNGICPVCSKRVKMHMVDHITSHHRDVLKSEQKEMSYREDPYLSDKYLQPHLDELPPSMNHHQHPSKHVSDQFLSFINNSALPNQTKLVLPDSSVEDKNPIKDSSAAKEGTSSCPLSDSDKLEKAKKCEFVQGLLSSAMFDDECDSSE
B3: ACS7 (protein, UniProt Q9STR4 1-447)
chain: MGLPLMMERSSNNNNVELSRVAVSDTHGEDSPYFAGWKAYDENPYDESHNPSGVIQMGLAENQVSFDLLETYLEKKNPEGSMWGSKGAPGFRENALFQDYHGLKTFRQAMASFMEQIRGGKARFDPDRIVLTAGATAANELLTFILADPNDALLVPTPYYPGFDRDLRWRTGVKIVPIHCDSSNHFQITPEALESAYQTARDANIRVRGVLITNPSNPLGATVQKKVLEDLLDFCVRKNIHLVSDEIYSGSVFHASEFTSVAEIVENIDDVSVKERVHIVYSLSKDLGLPGFRVGTIYSYNDNVVRTARRMSSFTLVSSQTQHMLASMLSDEEFTEKYIRINRERLRRRYDTIVEGLKKAGIECLKGNAGLFCWMNLGFLLEKKTKDGELQLWDVILKELNLNISPGSSCHCSEVGWFRVCFANMSENTLEIALKRIHEFMDRRRRF
B4: mutated ABF3 (T451A) (protein, UniProt Q9M7Q3 1-454)
chain: MGSRLNFKSFVDGVSEQQPTVGTSLPLTRQNSVFSLTFDEFQNSWGGGIGKDFGSMNMDELLKNIWTAEESHSMMGNNTSYTNISNGNSGNTVINGGGNNIGGLAVGVGGESGGFFTGGSLQRQGSLTLPRTISQKRVDDVWKELMKEDDIGNGVVNGGTSGIPQRQQTLGEMTLEEFLVRAGVVREEPQPVESVTNFNGGFYGFGSNGGLGTASNGFVANQPQDLSGNGVAVRQDLLTAQTQPLQMQQPQMVQQPQMVQQPQQLIQTQERPFPKQTTIAFSNTVDVVNRSQPATQCQEVKPSILGIHNHPMNNNLLQAVDFKTGVTVAAVSPGSQMSPDLTPKSALDASLSPVPYMFGRVRKTGAVLEKVIERRQKRMIKNRESAARSRARKQAYTMELEAEIAQLKELNEELQKKQVEIMEKQKNQLLEPLRQPWGMGCKRQCLRRTLAGPW

Target: T1, 14-3-3ω (Arabidopsis thaliana) (UniProt Q01525)
T1 sequence: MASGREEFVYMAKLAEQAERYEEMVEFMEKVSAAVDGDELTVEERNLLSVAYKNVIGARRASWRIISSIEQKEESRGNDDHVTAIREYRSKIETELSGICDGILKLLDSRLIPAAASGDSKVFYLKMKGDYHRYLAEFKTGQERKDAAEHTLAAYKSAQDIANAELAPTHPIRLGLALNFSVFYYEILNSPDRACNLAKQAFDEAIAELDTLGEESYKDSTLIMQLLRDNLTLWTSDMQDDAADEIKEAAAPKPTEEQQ
Test: split reporter; BiFC with YN and YC fragments of YFP; paired plasmids (10 ug) transfected into Arabidopsis leaf protoplasts with polyethylene glycol; YFP fluorescence by confocal microscopy after 12-16 h; both combinations of the YFP halves

| Binder | binding |
| --- | --- |
| B1 | binds |
| B2 | binds |
| B3 | binds |
| B4 | no binding |
